Most values lie at the floor of the assay. Slopes are relative: functional sequences can read slightly below zero.

This data set deals with Saccharomyces cerevisiae PS128 hsf1 delta, HSF1(1-493) fusion. Briefly: growth estimate (transactivation domain function in HSF1 fusion, heat-shock survival) (a.u. (slope of normalised read count over time)); higher = stronger growth at 37°C, i.e. more transactivation activity. To be noted: library: random library.
With KARAHGVRENRRGDRLGTRF, the growth estimate is less than -0.25.
Then GKDDGDMLTPCR, with less than -0.25; and NQPLCHKSTSEVPA, with less than -0.25; and GLTLRFALTTENRWLGR, with less than -0.25.
With SPNVRTTIDSQCIQGGTAKQ, the growth estimate is less than -0.25.
In the case of RPSCKAYGKGYN it was less than -0.25.
As for QSVRE, the growth estimate is less than -0.25.
For the substance FQVCMP, the growth estimate is less than -0.25.
In the case of LTSTVSVRRNMEREGVVMWQ it was less than -0.25; in that of CVWIKF, less than -0.25; in that of LESWKELTR, less than -0.25.
Turning to LLSVLYTFDCP, the growth estimate was less than -0.25.
In the case of LRQRLLYTKEAN it was less than -0.25.
In the case of ACDQRDGARVSCHHR, the growth estimate is less than -0.25.
Then ERVDTLKNLFRRCVHIRFSG, with less than -0.25; and MYGVGPLRPLHEDGSAIDMR, with less than -0.25.
For the substance RMRKHNHYPTIPRSKG, the growth estimate was less than -0.25.
Take LNPDGPGSDRRVEPCQDLAG: the growth estimate is less than -0.25.
With DSRGSRSGSRMLLEMFLWHR, the growth estimate is less than -0.25.
Then LNNLYVTCGA, with less than -0.25; and LIRVRRSIALAWGRVYTIRN, with less than -0.25; and GGKHSRLENVATGFRPIDPE, with less than -0.25.
Turning to DVDGFIVQSDCGQSLPILQQ, the growth estimate is less than -0.25.
With WWVYNSGCRRFSCMHLGPN, the growth estimate was less than -0.25.
For the substance TLTETFPDCP, the growth estimate was less than -0.25.
Turning to DVVR, the growth estimate was less than -0.25.
For the substance SRRGDGPCCDVGTSERARLR, the growth estimate is less than -0.25.
Take GEEIHTDDGECVLA: the growth estimate is less than -0.25.
Then LIARRSEVFLEVRGKSTVYT, with less than -0.25; and AGAESLWYRNLYGDGCSLAA, with less than -0.25.
For LVCVLTHVDRGIVYYKIFLR, the growth estimate was less than -0.25.
Then GDGFQSHDRSR, with less than -0.25; and ESCKNGIS, with less than -0.25.
Then ERYDAI, with less than -0.25; and AQLGGVSGFARMSRTEVITR, with less than -0.25; and KDGFRRVRKGQLKFKSTHQL, with less than -0.25.
Take EGSDTRVYGTVE: the growth estimate is less than -0.25.
In the case of HGIRVQLWTMIISTRLCRCI it was less than -0.25; in that of VCQGLGDRDPIPK, less than -0.25; in that of PHREGISMKS, less than -0.25.
On to EYASERRSSSECGDRRQVPA, for which the growth estimate was less than -0.25.
With DGYAPVADKESGNYWRY, the growth estimate was less than -0.25.
Then HSQRNGNPGAV, with less than -0.25; and GTSRCNLLGALWYIELA, with less than -0.25; and VQAM, with -0.181.
VPALLVVCMPSQWRQPSWPA: the growth estimate was less than -0.25.
For YSFKGIFRAFYES, the growth estimate was less than -0.25.
With SLRDTKGLWDSQPEDYMVER, the growth estimate is less than -0.25.
For SGIVD, the growth estimate is less than -0.25.
RLPGLCYEGARRGFHTARQP: the growth estimate was less than -0.25.
As to RLRGMEGDTLWAP, the growth estimate was less than -0.25.
Regarding ETVLETISSMPTAEIASGIT, the growth estimate is less than -0.25.
Then LRVEDRDNARCVHSCGFHAG, with less than -0.25; and FHVPESQWVVDI, with less than -0.25.
In the case of AVGGQ it was less than -0.25; in that of KGLRTGWP, less than -0.25.
For the substance NLDNGKFRSVAGEMCVGSRL, the growth estimate was less than -0.25.
In the case of RDFAHDNCLNGIYCHCTVCI it was -0.24; in that of HNDRSLSTPQMRSVTVYDLI, less than -0.25.
In the case of RKFIREVFPSTGGSYRSYCD it was less than -0.25.
Then ATVVST, with less than -0.25; and KLQIASKDKVKEIGRERNC, with -0.0562; and TCST, with less than -0.25.
Consider QGWRPRNEDR, for which the growth estimate is less than -0.25.
Consider TFRTSLSCGDRDKRGRIISI, for which the growth estimate is less than -0.25.
In the case of PKAVRMRGSKAPSVRLPGSK, the growth estimate was -0.107.
Turning to SNEV, the growth estimate is less than -0.25.
For the substance PGVLSDIKA, the growth estimate is less than -0.25.
In the case of CCWEKYSNRVPYSER it was less than -0.25; in that of PFYAPRFGRFKSLWSDRNGS, -0.245; in that of RTFANICSWTSDLLFHEPPS, less than -0.25.
Then VSTKGLH, with less than -0.25; and AWGYTKKGQGINQKRHLQRP, with less than -0.25; and ARLYLKRQLRV, with less than -0.25.
As for PWKTKPASASFAGRCV, the growth estimate was -0.203.
In the case of GVGGRLPRVQLRALAQPRGT it was less than -0.25; in that of TAGAAR, less than -0.25; in that of SAVVSGKAGTSRMLCVSEEW, less than -0.25.
Then LTKVSTRYPSRPVGGARIPR, with less than -0.25.
Then PFLSAFRH, with less than -0.25; and KIVLLAPKTGEKRGYPGRFS, with less than -0.25.
Regarding CICIASSRTRPGLSTRGNSG, the growth estimate is less than -0.25.
Then WDFDLVTIQSLRAPPFCVTL, with less than -0.25.
As to PLPDTLWVKGVVQRPGPGGD, the growth estimate is less than -0.25.
In the case of ANGRPTGALARVRRDCSQLG it was less than -0.25; in that of FSIIAVC, less than -0.25; in that of APHSEGNSLLAY, less than -0.25.
For the substance SVSAVTMKIIRAMDA, the growth estimate is less than -0.25.
Consider PPVGAETPGHGPNAVKRSIR, for which the growth estimate was less than -0.25.
Consider LGTGIVQPYRIGNLQVLVSS, for which the growth estimate is less than -0.25.
In the case of GLLRRGKRGKGCSQRSCH it was less than -0.25.
As to CRLGVRWSNVWSVIAEPGNF, the growth estimate is less than -0.25.
Then RHVASTRVWGNIHCGEDRIE, with -0.229; and PRYVLFNCLCRHS, with less than -0.25; and KRHRRMTRLPDRSHEYYPTC, with less than -0.25.
In the case of VART it was less than -0.25; in that of STRCAARVDYTVIHLLCGLS, less than -0.25.
Then QYGRSALLPNGCRVLL, with less than -0.25.
In the case of SYAHDGSRTPR, the growth estimate was less than -0.25.
In the case of GACC it was less than -0.25; in that of GLVRHTGKL, less than -0.25; in that of NLSTITMFSC, 0.391.
In the case of FIGTL, the growth estimate is -0.246.
Then CRLRRTS, with less than -0.25.
Then CGHRV, with less than -0.25; and PRHEERI, with less than -0.25.
As for FPGIVSDARYHGV, the growth estimate is less than -0.25.
For RYSFCSFYGIHAFSGIRRDT, the growth estimate was less than -0.25.
Regarding YHTIPGDPSKFQLTP, the growth estimate was less than -0.25.
As for ACWFWVKSSKCV, the growth estimate is less than -0.25.
Then RLVQ, with less than -0.25; and CIRCMKGRISVQLAGMPVPV, with less than -0.25; and IDHVLRRATHRIQPCNHHRS, with less than -0.25.
Then FILHG, with -0.25; and HTVG, with less than -0.25.

These data come from the supplement of paper PMC5949888.
